Consider 62 molecules from PubChem BioAssay AID493014 (National Center for Advancing Translational Sciences (NCATS), 2011).

This test is described as follows: qHTS Assay to Find Inhibitors of Chronic Active B-Cell Receptor Signaling. Particulars: ABC-DLBCL IkBa-CBG/CBR reporter, luminescence ratio (green luciferase fused to IkBa over red control in TMD8 lymphoma cells), 4 h. The essentials: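 Doxycycline induced both beetle luciferases in TMD8 lymphoma cells; IKK-driven degradation limits the IkappaBalpha-fused green signal, while red luminescence normalises for cell number and nonspecific effects. Compounds tested up to 46 uM, 4 hrs.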

Setting [1] is: measured here: CBR red luminescence, cell number.
Where [2] appears, read: measured here: IkBa-CBG green luminescence.

This is one part of the list. Shown are side measurements of this screen, not its main read-out; they come without a call. The list favours compounds with an active or inconclusive main result. Potencies come from curve fits of mixed quality, noted in brackets.

With `COc1cccc(C(=O)N[C@@H](CCSC)c2nc3ccccc3[nH]2)c1`, the AC50 under setting [1] is 12.6 µM [falling, partial curve, poor fit].

Consider `Oc1ccc(N=Nc2n[nH]c(-c3ccc(Cl)cc3)n2)cc1`, for which the AC50 under setting [1] is 0.891 µM [falling, full curve].

On to `CC(C)c1ccc(NC(=O)C2CC2c2ccccc2)cc1` (stereo not given), for which the half-maximal activity concentration (AC50) under setting [1] is 14.1 µM [rising, partial curve, poor fit].

Turning to `O=C1NC(=Nc2ccccc2Cl)S/C1=C\c1cc([N+](=O)[O-])ccc1O`, the AC50 under setting [1] is 22.4 µM [falling, single point].

For the molecule `COc1cc(C2NC(=O)NC(C)=C2C(=O)OCc2ccc(C)cc2)cc(OC)c1O` (stereo not given), the AC50 under setting [1] is 0.794 µM [rising, full curve, poor fit] and the AC50 under setting [2] is 12.6 µM [falling, partial curve, poor fit].

As to `Cc1ccc(CNC(=O)CCS(=O)(=O)c2ccc(Br)s2)cc1`, the AC50 under setting [1] was 16.4 µM [rising, single point].

Regarding `COc1ccc(-c2ccc(SCC(=O)c3cccs3)nn2)cc1`, the AC50 under setting [1] is 35.5 µM [falling, single point].

With `COc1cc2c(cc1OC)CN(c1ccc(F)cc1[N+](=O)[O-])CC2`, under setting [1], the AC50 was 5.62 µM [rising, partial curve, poor fit].

For `C[C@H](CO)N1C[C@H](C)[C@@H](CN(C)Cc2ccccc2)Oc2c(NS(=O)(=O)c3cn(C)cn3)cccc2C1=O`, the AC50 under setting [1] is 4.11 µM [falling, partial curve, poor fit].

In the case of `CCOC(=O)/C=C1\SCC(=O)N1Cc1nnc(-c2ccccc2Br)o1`, under setting [1], the AC50 was 6.51 µM [falling, partial curve].

For the molecule `CCn1ncc(Br)c1C(=O)Nc1sc2c(c1C(N)=O)CCC2`, under setting [1], the AC50 was 0.562 µM [falling, partial curve, poor fit].

For `O=C(CNC(=O)c1cnccc1C(F)(F)F)c1cccc(Cl)c1`, the AC50 under setting [1] is 7.08 µM [falling, partial curve, poor fit].

On to `COc1ccc(N2CSC3=C(C#N)C(c4cccc(OC)c4OC)CC(=O)N3C2)cc1` (stereo not given), for which, under setting [1], the AC50 was 2.91 µM [rising, full curve].

In the case of `COCCOC(=O)c1c(C)n(C)c2ccc(OC(=O)c3ccccc3F)cc12`, under setting [1], the AC50 is 2.51 µM [rising, partial curve, poor fit].

For `Cc1ccc(C)c(C(=O)N(Cc2nc(-c3ccc(Cl)cc3)no2)C(C)C)c1`, under setting [1], the AC50 was 0.013 µM [falling, full curve, poor fit].

As for `O=C(Nc1cnn(Cc2ccc(Cl)cc2Cl)c1)c1noc2c1CCCC2`, the AC50 under setting [1] is 29.1 µM [falling, single point] and the AC50 under setting [2] was 23.1 µM [rising, partial curve, poor fit].

For `COc1ccc(C2SCC(=O)N2c2c(C)n(C)n(-c3ccccc3)c2=O)c(OC)c1` (stereo not given), the AC50 under setting [1] is 3.98 µM [rising, full curve, poor fit].

For the molecule `COc1ccc(NC(=O)c2ccco2)cc1NC(=O)c1cc2ccccc2o1`, the AC50 under setting [1] is 1.41 µM [rising, partial curve, poor fit].

`CNC(=O)COC(=O)c1ccccc1C(=O)c1ccc(Cl)c([N+](=O)[O-])c1`: the AC50 by setting is: under setting [1], 5.62 µM [falling, full curve]; under setting [2], 5.62 µM [rising, full curve].

For `CCOC(=O)c1sc(NC(=O)CSc2n[nH]c(C)n2)nc1C`, the AC50 under setting [1] is 10 µM [falling, partial curve, poor fit].

Take `COC(=O)c1cc(OC)c(OC)cc1NC(=O)c1ccco1`: the AC50 under setting [1] is 12.6 µM [falling, partial curve, poor fit].

`CC(C)n1c(N2CCN(C(=O)Nc3ccc(Cl)cc3)CC2)nc2ccccc21`: under setting [1], the AC50 was 1.26 µM [rising, full curve, poor fit].

On to `CCn1nccc1C(=O)Nc1ccc(S(=O)(=O)NC23CC4CC(CC(C4)C2)C3)cc1`, for which, under setting [1], the AC50 is 14.6 µM [falling, partial curve, poor fit].

In the case of `CC(=O)c1ccc(Oc2ncnc3sccc23)c(CN2CCOCC2)c1`, the AC50 under setting [1] is 25.9 µM [rising, single point].

Regarding `COc1ccc(NC(=O)c2noc3c2CCCCC3)cc1`, under setting [1], the AC50 was 35.5 µM [falling, single point].

Take `COc1ccc(OCC(=O)Nc2cccc3ncccc23)cc1`: the AC50 under setting [1] was 20.6 µM [falling, partial curve, poor fit].

Regarding `Cc1ccc(N(C(=O)C2CCCC2)C2C=CS(=O)(=O)C2)cc1C` (stereo not given), the AC50 under setting [1] is 0.517 µM [falling, partial curve, poor fit].

Regarding `CCCCc1c(CCC)c(=N)c2ccccc2n1C`, the AC50 under setting [1] is 5.01 µM [rising, partial curve, poor fit].

For the molecule `NC(=O)CSc1ncc(-c2ccccc2)[nH]1`, the AC50 under setting [1] is 14.1 µM [rising, single point].

Turning to `COc1ccc(C(=O)NNC(=O)C(=O)Nc2ccc(C)cc2)cc1`, the concentration at half-maximal activity (AC50) under setting [1] is 10 µM [falling, partial curve].

Consider `Cc1ccccc1C(=O)N1CCC(C(=O)N(CC(C)C)c2c(N)n(Cc3ccccc3)c(=O)[nH]c2=O)CC1`, for which the AC50 under setting [1] was 0.146 µM [rising, full curve, poor fit].

As to `COc1cccc2sc(Nc3nnc(-c4ccc(F)cc4)o3)nc12`, the AC50 under setting [1] was 0.58 µM [falling, full curve].

`CC1(C)Cc2c(sc(NC(=O)C3CC(Cl)=CCC3C(=O)O)c2C#N)CO1` (stereo not given): the AC50 under setting [1] was 35.5 µM [falling, single point].

Regarding `O=c1c(Br)c(NCc2ccccc2)cnn1-c1ccc(F)cc1`, the AC50 under setting [1] is 22.4 µM [falling, single point].

Take `COc1cc(C(=O)NCCCN2CCCC2=O)cc(OC)c1OC`: the AC50 under setting [1] is 0.82 µM [rising, partial curve, poor fit].

`COc1cccc2cc(C(C)N(CCCN3CCOCC3)C(=S)Nc3ccc(C)cc3)oc12` (stereo not given): the AC50 under setting [1] is 3.55 µM [rising, partial curve, poor fit].

On to `Nc1nc2n(n1)C(c1ccccc1)CC(c1ccc(F)cc1)N2` (stereo not given), for which the AC50 under setting [1] was 17.8 µM [rising, single point].

In the case of `O=C(N/N=C/c1cn(-c2ccccc2)nc1-c1ccc2c(c1)OCCO2)c1ccncc1`, under setting [1], the AC50 is 2.82 µM [rising, full curve, poor fit].

As to `Cc1cccc(OCC(=O)N=Nc2c(O)[nH]c3ccc([N+](=O)[O-])cc23)c1`, under setting [1], the AC50 was 0.224 µM [rising, full curve, poor fit].

As to `COc1ccc(-c2cc(C(=O)Nc3ccc4c(c3)OCO4)no2)cc1`, the AC50 under setting [1] was 0.708 µM [falling, full curve, poor fit].

For the molecule `COC(=O)c1ccc(CS(=O)(=O)c2ccc(C)cc2)cc1`, the AC50 under setting [1] is 32.6 µM [rising, single point].

Regarding `CCOC(=O)c1cc(-c2ccccc2)n(CC(=O)Nc2cccc(OC)c2)c1C`, under setting [1], the AC50 was 29.1 µM [rising, single point].

As to `CCCCCc1ccc(-c2ccc(OC)cc2)nc1`, the AC50 under setting [1] is 3.16 µM [falling, partial curve, poor fit].

As for `COc1cccc(C(=O)N2N=C(c3ccccc3)CC2(O)C(F)(F)F)c1` (stereo not given), the AC50 under setting [1] was 9.2 µM [falling, partial curve, poor fit].

On to `CC1CCc2c(sc(NC(=O)CN3CCN(C(=O)c4ccco4)CC3)c2C#N)C1` (stereo not given), for which, under setting [1], the concentration at half-maximal activity (AC50) is 6.31 µM [rising, single point].

For the molecule `O=[N+]([O-])c1ccc(O)c(C=Nc2cccc3ccccc23)c1`, the AC50 under setting [1] was 12.6 µM [falling, partial curve, poor fit].

Regarding `c1ccc(CN2CCN(c3nc4ccccc4s3)CC2)cc1`, the AC50 under setting [1] was 0.282 µM [rising, full curve, poor fit].

Take `Cc1cccc(C)c1NC(=O)CSc1nnc(Cn2nnc(-c3ccccc3)n2)n1-c1ccccc1`: the AC50 under setting [1] was 17.8 µM [falling, single point].

For the molecule `O=C1NC2(CCC3(CC2)OCCO3)NN1c1ccccc1`, the concentration at half-maximal activity (AC50) under setting [1] is 3.55 µM [falling, partial curve, poor fit].

`COc1ccc(Nc2cccc(Cl)c2)c(C(=O)O)c1`: the AC50 under setting [1] is 11.6 µM [falling, single point].

With `COc1ccc([N+](=O)[O-])cc1N(CC(O)CN1CCOCC1)S(=O)(=O)c1ccccc1` (stereo not given), the AC50 under setting [1] is 17.8 µM [falling, single point].

Take `CCOc1ccc(-c2cn3ccccc3n2)cc1`: the AC50 under setting [1] is 12.6 µM [falling, single point].

`Cc1ccccc1C(=O)NNC(=O)C1CC(=O)N(Cc2ccccc2)C1` (stereo not given): the AC50 under setting [1] was 18.4 µM [falling, partial curve].

As for `Nc1c(C(=O)Nc2ccc(Cl)c(C(=O)O)c2)sc2nc3c(cc12)CCCC3`, the AC50 under setting [1] is 20 µM [falling, partial curve, poor fit].

For `Cc1onc(-c2c(F)cccc2Cl)c1C(=O)Nc1nnc(C2CC2)s1`, under setting [1], the AC50 was 7.08 µM [rising, partial curve, poor fit].

As to `Clc1ccccc1-c1ncc(-c2ccccc2)o1`, the AC50 under setting [1] was 35.5 µM [falling, single point].

In the case of `CC(=O)Nc1ccc(S(=O)(=O)Oc2ccccc2N2C(=O)C3C4CCC(C4)C3C2=O)cc1` (stereo not given), the AC50 under setting [1] is 35.5 µM [falling, single point].

With `O=C(CNC1CCCCC1)Nc1ccc(Cl)cc1`, under setting [1], the AC50 was 7.94 µM [falling, partial curve, poor fit].

`Cc1nc(NC(=O)CN2CCOCC2)sc1-c1ccccc1`: the AC50 under setting [1] was 35.5 µM [falling, single point].

On to `Cc1cc(OC(=O)c2cc(Cl)nc3ccccc23)ccc1Cl`, for which the AC50 under setting [1] is 7.31 µM [rising, partial curve].

On to `CCOc1ccc(-c2cc(CCCC(=O)NCCc3ccccc3)no2)cc1`, for which, under setting [1], the AC50 is 20.6 µM [falling, single point].

Consider `COC(=O)C1=CN(Cc2ccc(OC)cc2)C=C(C(=O)OC)C1c1ccsc1`, for which, under setting [1], the AC50 was 35.5 µM [falling, single point].

One may read the AC50 as the midpoint of the concentration-response curve, whichever way the signal moves.
